The target of the experiment is T1, Flu-RIF1pS2265 (fluorescein-labelled RIF1-L phosphoS2265PKF peptide) (human).
T1 sequence (peptide, fluorescein on the N-terminus; phosphoserine at S2265 (pS)): GYGFLSPGSRSPKFKSSK
As to the kind of experiment: fluorescence polarisation; 200 nM fluorescein-labelled peptide with increasing His6-SUMO-BRCT2 protein; room temperature; 25 mM HEPES pH 7.5, 200 mM NaCl, 1 mM EDTA, 0.25 mM TCEP, 0.02% Tween-20; one site-specific binding fit; Lambda phosphatase with 1 mM MnCl2 to remove the phosphate; both …. In general terms: In fluorescence polarisation assays a small probe gives low polarisation when free and higher when bound to something large.

Binding data for three substances are collected here from article PMC12214830, “The human RIF1-Long isoform interacts with BRCA1 to promote recombinational fork repair under DNA replication stress” (Nature Communications, 2025).

These are yes or no findings as the source states them, for the method shown.

For the substance “His6-SUMO tandem BRCT domains of 53BP1 (domain or fragment)”, the binding result was “no binding”.

“His6-SUMO tandem BRCT domains of MDC1 (domain or fragment)”: the binding result is “no binding”. To “His6-SUMO tandem BRCT domains of TOPBP1 (domain or fragment)” belongs “no binding”.
